{
  "source": "PubChem BioAssay AID1259415",
  "about": "(National Center for Advancing Translational Sciences (NCATS), 2018)",
  "note": "Screen size: about 410,000 compounds; about 18,000 (4.4%) were called active. This list was built around the results that the source calls inconclusive (neither active nor inactive); the mix of calls is not that of the screen. No stated cut-off is given here; in the data, active means activity change below about -60%; inconclusive means no clear call, values can overlap the other calls; inactive means above about -39%. On the % scale 0 is the no-effect control and ±100 the full control effect.",
  "data": [
    {"experiment": "qHTS Assay for inhibitors of the human cytomegalovirus (HCMV)", "conditions": "HFF cells, HCMV-luciferase reporter, 72 h; at 57.5 µM; stronger effect = lower value", "how_it_was_run": "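Human foreskin fibroblasts infected with luciferase-reporter HCMV at MOI 1 PFU/cell, compounds at two doses. Luciferase measured 72 h post infection; normalized to buffer-only basal and Salinomycin (10uM) controls.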", "values": [
      {"smiles": "CC(=O)C(Cc1cccc(F)c1)(Cc1cccc(F)c1)C(C)=O", "activity change, negative = inhibition": "inconclusive: -44.7%"},
      {"smiles": "O=C(OCC(=O)N1CCN(C(=O)c2ccco2)CC1)c1cc(-c2cccc(Br)c2)nc2ccccc12", "activity change, negative = inhibition": "inactive: 16.1%"},
      {"smiles": "Cc1ccc(C2(c3ccccc3)NC(=O)N(CC(=O)NC3(C#N)CCCC3)C2=O)cc1C", "note": "(stereo unspecified)", "activity change, negative = inhibition": "active: -91.5%"},
      {"smiles": "Cn1c(SCC(O)c2ccccc2)nnc1-c1ccc2ccccc2c1", "note": "(stereo unspecified)", "activity change, negative = inhibition": "inconclusive: -47%"},
      {"smiles": "CCn1c(=O)n(CC)c2cc(N3CCCCC3)c(NC(=O)Nc3ccccc3C(F)(F)F)cc21", "activity change, negative = inhibition": "inactive: -37.4%"},
      {"smiles": "Cc1cc(C)n2nc(SCC(=O)Nc3cccc(C(F)(F)F)c3)nc2n1", "activity change, negative = inhibition": "inconclusive: -45.2%"},
      {"smiles": "Cc1ccc(C2NC(=O)NC3=C2CCc2ccccc23)cc1", "note": "(stereo unspecified)", "activity change, negative = inhibition": "inactive: 13.9%"},
      {"smiles": "Cc1cccc(CC(=O)N2CCC(N3CCC(C(=O)N4CCOCC4)CC3)CC2)c1", "activity change, negative = inhibition": "inactive: -30.7%"},
      {"smiles": "O=S(=O)(CCOc1ccccc1)c1nc2ccccc2[nH]1", "activity change, negative = inhibition": "active: -68.6%"},
      {"smiles": "CC1CC1C(=O)N(C)CC(=O)Nc1ccccc1Br", "note": "(stereo unspecified)", "activity change, negative = inhibition": "inconclusive: -45.5%"},
      {"smiles": "C/C(=N\\NC(=O)c1ccncc1)c1cc2ccccc2o1", "activity change, negative = inhibition": "inconclusive: -52.3%"},
      {"smiles": "CC(C)N(CCCNC(=O)CC1Oc2ccccc2NC1=O)Cc1ccccc1", "note": "(stereo unspecified)", "activity change, negative = inhibition": "inconclusive: -43.5%"},
      {"smiles": "COc1ccc(N2CCN(C(=O)c3ccc(Cl)c(S(=O)(=O)N4CCOCC4)c3)CC2)cc1", "activity change, negative = inhibition": "inactive: 19.8%"},
      {"smiles": "CCOC(=O)C(CC)(CC)C(=O)/C=C/c1cccc(Br)c1", "activity change, negative = inhibition": "active: -75.4%"},
      {"smiles": "Cc1ccc(-c2cc(C(=O)N3CCN(S(=O)(=O)c4ccc(Br)cc4)CC3)[nH]n2)cc1C", "activity change, negative = inhibition": "inconclusive: 0%"},
      {"smiles": "Cc1ccc(S(=O)(=O)N2CCOCC2)c2nsnc12", "activity change, negative = inhibition": "inactive: -14.4%"},
      {"smiles": "O=C(Nc1ccc2oc(Cc3ccc(Cl)cc3)nc2c1)c1cccnc1", "activity change, negative = inhibition": "inconclusive: -51%"},
      {"smiles": "CCCn1c(/C=C/c2ccco2)nc2ccccc21", "activity change, negative = inhibition": "inconclusive: -40.2%"},
      {"smiles": "CC(C(=O)Nc1ccc2c(c1)OCO2)c1ccc([N+](=O)[O-])cc1", "note": "(stereo unspecified)", "activity change, negative = inhibition": "inconclusive: -45.9%"},
      {"smiles": "CC(C)CCn1c(SCC(=O)NC2CCS(=O)(=O)C2)nc2cc(Cl)ccc2c1=O", "note": "(stereo unspecified)", "activity change, negative = inhibition": "inactive: -10.1%"},
      {"smiles": "O=C(c1cccnc1)N1CCCC(Nc2ccc(F)cc2)C1", "note": "(stereo unspecified)", "activity change, negative = inhibition": "inconclusive: -42.1%"},
      {"smiles": "C[C@]12CCC3[C@@H](CCC4=CC(=O)CC[C@@]43CO)C1CCC2=O", "note": "(stereo partly specified)", "activity change, negative = inhibition": "inconclusive: -46.2%"},
      {"smiles": "CN1C(=O)[C@H](Cc2ccc([N+](=O)[O-])cc2)NC1=S", "activity change, negative = inhibition": "active: -72%"},
      {"smiles": "COC(=O)CS(=O)(=O)c1nc2ccccc2nc1N1CCCCC1", "activity change, negative = inhibition": "active: -66.2%"},
      {"smiles": "CCOC(=O)c1ccccc1NC(=O)Nc1cc2c(cc1N1CCCCC1)n(C)c(=O)n2C", "activity change, negative = inhibition": "inactive: 0.746%"},
      {"smiles": "O=C(Nc1ccc(NC(=O)N2CCN(c3ccccc3O)CC2)cc1)N1CCN(c2ccccc2O)CC1", "activity change, negative = inhibition": "inactive: 5.95%"},
      {"smiles": "O=C(CSc1ncccn1)NCc1ccc(Cl)cc1", "activity change, negative = inhibition": "inactive: 17.3%"},
      {"smiles": "Cc1nn(-c2nc(-c3ccc(F)cc3)cc(C(F)(F)F)n2)c(C)c1Br", "activity change, negative = inhibition": "inactive: -18.3%"},
      {"smiles": "COc1cccc(OCC(=O)Nc2cc(Cl)ccc2Oc2ccccc2)c1", "activity change, negative = inhibition": "inactive: -37.6%"},
      {"smiles": "CC(=O)N1CCN(Cc2ccc(Cl)nc2)CC1", "activity change, negative = inhibition": "active: -78.2%"},
      {"smiles": "C/C(=N\\NC(=O)Cc1ccccc1)c1cccnc1", "activity change, negative = inhibition": "inactive: -1.54%"},
      {"smiles": "CC1=CC2(O)OCCN(CCO)C2=CC1=O", "note": "(stereo unspecified)", "activity change, negative = inhibition": "inconclusive: -50.4%"},
      {"smiles": "CC1C(=O)C(C)C(c2ccc(Br)cc2)NC1c1ccc(Br)cc1", "note": "(stereo unspecified)", "activity change, negative = inhibition": "inconclusive: -54.6%"},
      {"smiles": "C[C@@H]1CN(C(=O)c2nc3ccc(Cl)cn3c2CNCC[C@@H]2C[C@@H]3C=C[C@H]2C3)C[C@H](C)O1", "activity change, negative = inhibition": "inconclusive: -46.6%"},
      {"smiles": "COc1cc(C(=O)Nc2ccc(S(=O)(=O)N3CCCCC3C)cc2)cc(OC)c1OC", "note": "(stereo unspecified)", "activity change, negative = inhibition": "inconclusive: -53.1%"},
      {"smiles": "COCCN(C(=S)Nc1ccc(OC)cc1)C1CCN(C(C)=O)CC1", "activity change, negative = inhibition": "inconclusive: -46.2%"},
      {"smiles": "Cc1ccc(NC(=O)c2cc3ccccc3o2)cc1S(=O)(=O)N(C)C", "activity change, negative = inhibition": "inactive: 11.9%"},
      {"smiles": "CN(CC(=O)Nc1ccc(Cl)cc1)C(=O)c1ccc(S(=O)(=O)Nc2ccccc2)cc1", "activity change, negative = inhibition": "inconclusive: -42%"},
      {"smiles": "COc1cccc(Nc2c3c(nc4nncn24)CCC3)c1", "activity change, negative = inhibition": "inconclusive: -50%"},
      {"smiles": "COc1cccc(NC(=O)N2CCc3nc(Nc4ccc(C(C)C)cc4)ncc3C2)c1", "activity change, negative = inhibition": "active: -68.6%"},
      {"smiles": "O=C(CN1C(=O)NC2(CCCC2)C1=O)Nc1ccccc1N1CCCCC1", "activity change, negative = inhibition": "inconclusive: -42.8%"},
      {"smiles": "O=C(CSc1nnc(-c2cccnc2)n1Cc1ccco1)Nc1nc(-c2ccc(F)cc2)cs1", "activity change, negative = inhibition": "active: -74.2%"},
      {"smiles": "COCCN(C(=O)C1CCCC1)c1c(N)n(Cc2ccccc2)c(=O)[nH]c1=O", "activity change, negative = inhibition": "inactive: -14.1%"},
      {"smiles": "Cc1cc2onc([C@H]3CCCN3C(=O)N3CCOCC3)c2cc1C", "activity change, negative = inhibition": "inconclusive: -53.6%"},
      {"smiles": "CCNC(=O)NC(=O)C(C)OC(=O)c1c(C)nn(Cc2ccccc2Cl)c1Cl", "note": "(stereo unspecified)", "activity change, negative = inhibition": "inconclusive: -42.7%"},
      {"smiles": "CC(=O)c1cn(C)c(=O)[nH]c1=O", "activity change, negative = inhibition": "inactive: -22.2%"},
      {"smiles": "O=C(CN1C(=O)c2cccnc2Oc2ccc(Cl)cc21)N1CCOCC1", "activity change, negative = inhibition": "inconclusive: -41.9%"},
      {"smiles": "COc1cccc(C(C(=O)NC(C)(C)C)N(Cc2ccco2)C(=O)CCC(=O)Nc2cc(C)on2)c1OC", "note": "(stereo unspecified)", "activity change, negative = inhibition": "inactive: -36.5%"},
      {"smiles": "Oc1ccccc1N=N/C(=N/Nc1ccccc1O)c1ccccc1", "activity change, negative = inhibition": "inactive: 30.1%"},
      {"smiles": "COc1ccc(OC)c(CCNC(=O)Cn2nc(C)c3c(C)n(-c4ccc(C)cc4)nc3c2=O)c1", "activity change, negative = inhibition": "active: -91.8%"},
      {"smiles": "CC(=O)c1cccc(CN2CCN(C3CCCC3)C(CCO)C2)c1", "note": "(stereo unspecified)", "activity change, negative = inhibition": "inconclusive: -47.2%"},
      {"smiles": "CCN(CC)CCN1CNC(=S)NC1", "activity change, negative = inhibition": "inactive: -25.6%"},
      {"smiles": "COc1cc(OC)cc(C(=O)Nc2ccc3c(c2)N(C2CCCC2)C(=O)c2ccccc2S3)c1", "activity change, negative = inhibition": "inconclusive: -57.6%"},
      {"smiles": "CC1CCCCN1S(=O)(=O)c1ccc(S(=O)(=O)N(Cc2ccccc2)Cc2ccco2)cc1", "note": "(stereo unspecified)", "activity change, negative = inhibition": "inactive: -19.8%"},
      {"smiles": "O=C1CCN(C(=O)Cc2ccccc2[N+](=O)[O-])CC1", "activity change, negative = inhibition": "inconclusive: -40.3%"},
      {"smiles": "COc1ccc(C(=O)COc2ccc3ccc(=O)oc3c2)cc1", "activity change, negative = inhibition": "inconclusive: -41%"}
    ]}
  ]
}
